Reference: article PMC5773536
Results are given in words; binding and its absence hold for the method and conditions named. For some assays here: Where a sequence is shown, tags or fusion partners need not be part of it.

Experiments:
[1] = molecular target: recombinant luminal domain of GmVSR (soybean vacuolar sorting receptor) (Glycine max (soybean)); assay: SPR; GmVSR(LU) immobilised on a CM5 chip; glycinin subunits injected in high salt buffer (20 mM HEPES, pH 7.0, 0.4 M NaCl, 1 mM EDTA, 0.4% CHAPS, 1 mM CaCl2), 180 s, 30 uL/min; both purified
[2] = molecular target: recombinant luminal domain of GmVSR (soybean vacuolar sorting receptor) (Glycine max (soybean)); assay: SPR; GmVSR(LU) immobilised on a CM5 chip; GST fusion protein injected in the absence of Ca2+; both purified

Row | binding [1] | binding [2] | Binder
1 | no binding |  | recombinant A3B4 subunit of glycinin (protein, UniProt P04347 25-516) ITSSKFNECQLNNLNALEPDHRVESEGGLIETWNSQHPELQCAGVTVSKRTLNRNGSHLPSYLPYPQMIIVVQGKGAIGFAFPGCPETFEKPQQQSSRRGSRSQQQLQDSHQKIRHFNEGDVLVIPLGVPYWTYNTGDEPVVAISPLDTSNFNNQLDQNPRVFYLAGNPDIEHPETMQQQQQQKSHGGRKQGQHRQQEEEGGSVLSGFSKHFLAQSFNTNEDTAEKLRSPDDERKQIVTVEGGLSVISPKWQEQEDEDEDEDEEYGRTPSYPPRRPSHGKHEDDEDEDEEEDQPRPDHPPQRPSRPEQQEPRGRGCQTRNGVEENICTMKLHENIARPSRADFYNPKAGRISTLNSLTLPALRQFGLSAQYVVLYRNGIYSPDWNLNANSVTMTRGKGRVRVVNCQGNAVFDGELRRGQLLVVPQNPAVAEQGGEQGLEYVVFKTHHNAVSSYIKDVFRVIPSEVLSNSYNLGQSQVRQLKYQGNSGPLVNP
2 |  | no binding (only in the absence of Ca2+) | PQESQKRAVA [GST fused with the 10-residue C-terminal peptide of A1aB1b]
